Most values lie at the floor of the assay. Slopes are relative: functional sequences can read slightly below zero.
What follows are substances tested on Saccharomyces cerevisiae PS128 hsf1 delta, HSF1(1-493) fusion (assay: growth estimate (transactivation domain function in HSF1 fusion, heat-shock survival) (a.u. (slope of normalised read count over time)); higher = stronger growth at 37°C, i.e. more transactivation activity). Settings: library: random library.
Method: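 Random 60-nt DNA library encoding peptides of up to 20 aa, fused to the C-terminus of yeast HSF1 residues 1-493 (C-terminal TAD deleted) and expressed from the native HSF1 promoter on a CEN plasmid in hsf1-deleted S. cerevisiae PS128. Cells were selected at 37°C on -trp 5-FOA plates for 0, 2, 4, 6 and 8 days and amplicons were sequenced. Growth estimate is the slope of a robust linear fit of total-sum-normalised read counts (normalised to the first time point) over time, using at least 2 replicates. Sequences are classed functional (TAD activity) above a threshold of -0.13, set from stop-codon control sequences.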

Q: With GNFAVPQQCLAMGNGLVLQT as the substance, how does the growth estimate read?
A: Its growth estimate is less than -0.25.

Q: How did the growth estimate turn out when GNFDTTSRLYLLSSRQR was run?
A: Its growth estimate is less than -0.25.

Q: Which growth estimate does the source give for GNFLRNLIRRIRRFARCRDE here?
A: The growth estimate was less than -0.25.

Q: GNFTALGGLAHQS was tested. Which growth estimate did it give?
A: The growth estimate was less than -0.25.

Q: Which growth estimate does the source give for GNGMVDEGLCGGIRRWKSPV here?
A: Its growth estimate is less than -0.25.

Q: GNGVPRGGSDAKKRWGLMST was tested. Which growth estimate did it give?
A: Its growth estimate is less than -0.25.

Q: With GNIW as the substance, how does the growth estimate read?
A: Its growth estimate is less than -0.25.

Q: For GNLGRN, which growth estimate is on record?
A: The growth estimate was less than -0.25.

Q: For GNLLAHRRLGSVRGRLDSRL, which growth estimate is on record?
A: Its growth estimate is less than -0.25.

Q: For GNLLGLREWTVYVGRFERPI, which growth estimate is on record?
A: Its growth estimate is less than -0.25.

Q: With GNLQLNDGSYQRVLKQ as the substance, how does the growth estimate read?
A: The growth estimate was less than -0.25.

Q: How did the growth estimate turn out when GNNQSVRSV was run?
A: Its growth estimate is less than -0.25.

Q: Which growth estimate does the source give for GNNYLKPLGATGSN here?
A: Its growth estimate is less than -0.25.

Q: GNPHALF was tested. Which growth estimate did it give?
A: The growth estimate was less than -0.25.

Q: For GNPPVEEKLITII, which growth estimate is on record?
A: The growth estimate was less than -0.25.

Q: With GNPSARRHILLIKSFRSLSK as the substance, how does the growth estimate read?
A: Its growth estimate is less than -0.25.

Q: Which growth estimate does the source give for GNRGCTCPLASS here?
A: The growth estimate was less than -0.25.

Q: For GNSFLGFVRARP, which growth estimate is on record?
A: Its growth estimate is less than -0.25.

Q: How did the growth estimate turn out when GNSGSGPVGQFVAFPLSLVA was run?
A: The growth estimate was less than -0.25.

Q: Which growth estimate does the source give for GNSMAVPIWFGWLERSEIS here?
A: The growth estimate was -0.217.

Q: GNTAGRRSSQWLSSKQWAAF was tested. Which growth estimate did it give?
A: Its growth estimate is less than -0.25.

Q: With GNTPGLAV as the substance, how does the growth estimate read?
A: The growth estimate was less than -0.25.

Q: How did the growth estimate turn out when GNVDMVEAC was run?
A: Its growth estimate is less than -0.25.

Q: How did the growth estimate turn out when GNVLGSASLIQTSEDLQTFE was run?
A: Its growth estimate is less than -0.25.

Q: Which growth estimate does the source give for GNWKT here?
A: The growth estimate was less than -0.25.

Q: How did the growth estimate turn out when GNWQWHGDWVSSVQFDRNTS was run?
A: The growth estimate was less than -0.25.

Q: GNYKQYALPVK was tested. Which growth estimate did it give?
A: Its growth estimate is less than -0.25.

Q: GPAGP was tested. Which growth estimate did it give?
A: Its growth estimate is less than -0.25.

Q: With GPCC as the substance, how does the growth estimate read?
A: The growth estimate was less than -0.25.

Q: With GPDLLPTRF as the substance, how does the growth estimate read?
A: Its growth estimate is less than -0.25.

Q: GPFCPSSVC was tested. Which growth estimate did it give?
A: Its growth estimate is less than -0.25.

Q: For GPFGYPADSAHCFRKRDSIY, which growth estimate is on record?
A: Its growth estimate is less than -0.25.

Q: GPFIIRAAPGFFATISSAMS was tested. Which growth estimate did it give?
A: The growth estimate was less than -0.25.

Q: Which growth estimate does the source give for GPFPWHCTR here?
A: The growth estimate was less than -0.25.

Q: How did the growth estimate turn out when GPGIRSYRNLAGGYLVCLHP was run?
A: Its growth estimate is less than -0.25.

Q: Which growth estimate does the source give for GPHARLWSRVGSVLIGP here?
A: The growth estimate was less than -0.25.

Q: For GPHSSRHALR, which growth estimate is on record?
A: Its growth estimate is less than -0.25.

Q: GPIDACSRLQLCTARASIER was tested. Which growth estimate did it give?
A: Its growth estimate is less than -0.25.

Q: GPIQTKFYSFG was tested. Which growth estimate did it give?
A: The growth estimate was less than -0.25.

Q: Which growth estimate does the source give for GPISRIVRNQS here?
A: Its growth estimate is -0.241.

Q: For GPKGVSGRKE, which growth estimate is on record?
A: The growth estimate was -0.246.

Q: Which growth estimate does the source give for GPLIRMQCWLTGGSASPLLY here?
A: Its growth estimate is less than -0.25.

Q: How did the growth estimate turn out when GPLISWRRGVQCSHHQFYSA was run?
A: The growth estimate was less than -0.25.

Q: For GPLKGRGYVASLSFCSPLYV, which growth estimate is on record?
A: Its growth estimate is less than -0.25.

Q: How did the growth estimate turn out when GPLTEN was run?
A: Its growth estimate is less than -0.25.

Q: For GPLTYIVRVVRPSARPDTLL, which growth estimate is on record?
A: Its growth estimate is less than -0.25.

Q: With GPMNV as the substance, how does the growth estimate read?
A: The growth estimate was less than -0.25.

Q: GPMPRGWWEAGQFRASEPVR was tested. Which growth estimate did it give?
A: Its growth estimate is less than -0.25.

Q: With GPNLLSRFAPGRRSP as the substance, how does the growth estimate read?
A: Its growth estimate is less than -0.25.

Q: How did the growth estimate turn out when GPPKKREVKQVITHWGSTR was run?
A: The growth estimate was less than -0.25.

Q: GPPLEGEGGTSVWIGCSRA was tested. Which growth estimate did it give?
A: The growth estimate was less than -0.25.

Q: For GPPSLVVAVTSGYPARPS, which growth estimate is on record?
A: Its growth estimate is less than -0.25.

Q: For GPQVTLSIAASRAVQ, which growth estimate is on record?
A: Its growth estimate is less than -0.25.

Q: For GPQYMRTLFKSDHRK, which growth estimate is on record?
A: Its growth estimate is less than -0.25.

Q: GPRCRETGCHGIR was tested. Which growth estimate did it give?
A: The growth estimate was less than -0.25.

Q: With GPRGSTKQDFHNAGHSGTPR as the substance, how does the growth estimate read?
A: The growth estimate was less than -0.25.

Q: How did the growth estimate turn out when GPRMFSNIHRSCCNENCAHV was run?
A: Its growth estimate is less than -0.25.

Q: With GPRPAVRIYLPVSTPRPCRP as the substance, how does the growth estimate read?
A: The growth estimate was less than -0.25.

Q: How did the growth estimate turn out when GPRR was run?
A: Its growth estimate is less than -0.25.

Q: Which growth estimate does the source give for GPRTSRKREECCCVRPTE here?
A: The growth estimate was less than -0.25.

Q: GPS was tested. Which growth estimate did it give?
A: The growth estimate was less than -0.25.

Q: With GPSCTKHTKKPSRGVGSKVA as the substance, how does the growth estimate read?
A: The growth estimate was less than -0.25.

Q: With GPSGRFSSGWVCNRV as the substance, how does the growth estimate read?
A: The growth estimate was less than -0.25.

Q: With GPSHINWGLSLRGGRTVLSL as the substance, how does the growth estimate read?
A: Its growth estimate is less than -0.25.

Q: How did the growth estimate turn out when GPSIRVRCHRDKYYIGRTVK was run?
A: Its growth estimate is less than -0.25.

Q: For GPSTRGARRYRLPVHG, which growth estimate is on record?
A: Its growth estimate is less than -0.25.

Q: For GPTKSSPFAAYRLV, which growth estimate is on record?
A: The growth estimate was -0.238.

Q: For GPTNCTRA, which growth estimate is on record?
A: The growth estimate was less than -0.25.

Q: How did the growth estimate turn out when GPVEYARDSHPDVLVPRRLH was run?
A: Its growth estimate is less than -0.25.

Q: Which growth estimate does the source give for GPVGEARP here?
A: The growth estimate was less than -0.25.

Q: With GPVLVGPGFSGSVARTQSGR as the substance, how does the growth estimate read?
A: The growth estimate was less than -0.25.

Q: Which growth estimate does the source give for GPW here?
A: Its growth estimate is less than -0.25.

Q: Which growth estimate does the source give for GPWFPHWQARESFIQHWTNQ here?
A: Its growth estimate is less than -0.25.

Q: For GPWIDMLLRRVVSQFWPQRA, which growth estimate is on record?
A: Its growth estimate is less than -0.25.

Q: How did the growth estimate turn out when GPWLHGWRKSLVSEA was run?
A: Its growth estimate is less than -0.25.

Q: Which growth estimate does the source give for GPWRDLPFCDSRLRTGRVRS here?
A: The growth estimate was less than -0.25.

Q: GPWVDTDC was tested. Which growth estimate did it give?
A: The growth estimate was less than -0.25.

Q: With GQAIVRASAFR as the substance, how does the growth estimate read?
A: Its growth estimate is less than -0.25.

Q: How did the growth estimate turn out when GQC was run?
A: Its growth estimate is less than -0.25.

Q: Which growth estimate does the source give for GQCVGE here?
A: Its growth estimate is less than -0.25.

Q: Which growth estimate does the source give for GQDAVKTRVVRGWSPRR here?
A: Its growth estimate is less than -0.25.

Q: Which growth estimate does the source give for GQDG here?
A: The growth estimate was less than -0.25.

Q: How did the growth estimate turn out when GQDRVHFL was run?
A: The growth estimate was less than -0.25.

Q: How did the growth estimate turn out when GQEE was run?
A: Its growth estimate is less than -0.25.

Q: With GQERFTTYQFPNHLLARPLA as the substance, how does the growth estimate read?
A: Its growth estimate is less than -0.25.

Q: GQFRCEMLEVSRYGVHSGAG was tested. Which growth estimate did it give?
A: Its growth estimate is less than -0.25.

Q: GQGGIFRGSLGARSCGEVSC was tested. Which growth estimate did it give?
A: Its growth estimate is less than -0.25.

Q: How did the growth estimate turn out when GQGGTRQDGFAYVWEQWKLR was run?
A: The growth estimate was less than -0.25.

Q: Which growth estimate does the source give for GQGRCA here?
A: The growth estimate was less than -0.25.

Q: How did the growth estimate turn out when GQGRNYTGTVIVLTGV was run?
A: The growth estimate was -0.229.

Q: With GQGSVAYA as the substance, how does the growth estimate read?
A: Its growth estimate is less than -0.25.

Q: Which growth estimate does the source give for GQHYRALS here?
A: The growth estimate was less than -0.25.

Q: How did the growth estimate turn out when GQIPSERTQRGGKHKFAGLG was run?
A: The growth estimate was less than -0.25.

Q: For GQIVSCQYVRVLE, which growth estimate is on record?
A: Its growth estimate is less than -0.25.

— the supplement of paper PMC5949888
